{"source": "PubChem BioAssay AID330", "about": "(DTP/NCI, 2004)", "tested_on": "P388 leukemia ip, CD2F1 mice, survival T/C", "experiment": "NCI In Vivo Anticancer Drug Screen. Data for tumor model P388 Leukemia (intraperitoneal) in CD2F1 (CDF1) mice", "conditions": "T/C endpoint: median survival time, higher T/C = longer survival", "key": {"[1]": {"conditions": "dose: 50.0 mg/kg/injection, schedule: Q01DX009 (ip), vehicle: Klucel (hydroxypropylcellulose) (HPC)"}, "[2]": {"conditions": "dose: 50.0 mg/kg/injection, schedule: Q01DX005 (ip), vehicle: saline with Tween-80"}, "[3]": {"conditions": "dose: 200.0 mg/kg/injection, schedule: Q01DX009 (ip), vehicle: saline"}}, "note": "The list shows only some results of the screen, not a fair sample: it gathers tests that were run many times, whatever their T/C, doses with no T/C, and many T/C values between a quarter and a half above the control. Further doses and runs are listed elsewhere. T/C gives the treated animals as a percentage of the vehicle group. Some entries give survivors of the animals treated and no T/C: the source files T/C as zero there, which appears to mark a toxic dose or a test without result, not a measured value. Some doses without a T/C left all or most animals alive at the check, yet need not have been tolerated: survival well below the control is almost never listed, so the zero probably covers shortened survival too. Counts of survivors are from the toxicity check (mostly the fifth day) where no day follows; animals may have died later. Schedules are NCI's codes, taken here to give the interval after Q, in days (D) or hours (H), and the number of doses after X. Some entries hold several experiments; the values are given in rising order. Where survival is the endpoint, the PubChem record calls one and a half times the control and up active, and a quarter to a half above the control has no call in these data; cut-offs in other NCI protocols can differ.", "data": [{"compound": "CCN(CC)C1=NS(=O)(=O)c2ccccc2C(c2ccccc2)=C1C", "values": [{"measurement": "survivor count", "setting": "dose: 200.0 mg/kg/injection, schedule: Q04DX003 (ip), vehicle: Klucel (hydroxypropylcellulose) (HPC)", "value": "6 of 6"}]}, {"compound": "C=C1C(=O)OC2C1CCC(=C)C1CC(OC3OC(CO)C(O)C(O)C3O)C(=C)C12", "note": "(stereo not given)", "values": [{"measurement": "T/C", "setting": "dose: 200.0 mg/kg/injection, schedule: Q04DX003 (ip), vehicle: saline with Tween-80", "value": "127 % of control"}]}, {"compound": "CC1(C)OC2CCC3OC(=O)C(C)(Cl)C3C2O1", "note": "(stereo not given)", "values": [{"measurement": "survivor count", "setting": "dose: 200.0 mg/kg/injection, schedule: Q01DX009 (ip), vehicle: other", "value": "1 of 3"}]}, {"compound": "CCCCCCCCCCCCCCCCCCCCCCCCC(O)C(=O)NC(CO)C(O)C(O)CCCCCCCCCCCCCC", "note": "(stereo not given)", "values": [{"measurement": "survivor count", "setting": "dose: 12.5 mg/kg/injection, schedule: Q04DX003 (ip), vehicle: saline with Tween-80", "value": "6 of 6"}, {"measurement": "survivor count", "setting": "dose: 25.0 mg/kg/injection, schedule: Q04DX003 (ip), vehicle: saline with Tween-80", "value": "6 of 6"}, {"measurement": "survivor count", "setting": "dose: 50.0 mg/kg/injection, schedule: Q04DX003 (ip), vehicle: saline with Tween-80", "value": "6 of 6"}]}, {"compound": "CC(C)(C)OC(=O)NCC(=O)NC(CSC(c1ccccc1)c1ccccc1)C(=O)NCC(=O)O", "note": "(stereo not given)", "values": [{"measurement": "survivor count", "setting": "dose: 200.0 mg/kg/injection, schedule: Q01DX005 (ip), vehicle: Klucel (hydroxypropylcellulose) (HPC)", "value": "5 of 6"}]}, {"compound": "O=c1c(O)c(-c2cc(O)c(O)c(O)c2)oc2cc(O)cc(O)c12", "values": [{"measurement": "survivor count", "setting": "dose: 12.5 mg/kg/injection, schedule: Q01DX009 (ip), vehicle: Klucel (hydroxypropylcellulose) (HPC)", "value": "1 of 6"}, {"measurement": "survivor count", "setting": "dose: 25.0 mg/kg/injection, schedule: Q01DX009 (ip), vehicle: Klucel (hydroxypropylcellulose) (HPC)", "value": "0 of 6"}, {"measurement": "T/C", "setting": "dose: 25.0 mg/kg/injection, schedule: Q01DX009 (ip), vehicle: other", "value": "135 % of control"}, {"measurement": "T/C", "setting": "[1]", "value": "130 % of control"}, {"measurement": "survivor count", "setting": "[1]", "value": "0 of 6"}, {"measurement": "T/C", "setting": "dose: 50.0 mg/kg/injection, schedule: Q01DX009 (ip), vehicle: other", "value": "135 % of control"}, {"measurement": "survivor count", "setting": "dose: 75.0 mg/kg/injection, schedule: Q01DX009 (ip), vehicle: Klucel (hydroxypropylcellulose) (HPC)", "value": "0 of 6"}]}, {"compound": "CN(CCC(=O)/C(=C\\c1ccccc1)c1ccc(Cl)cc1)Cc1ccccc1", "values": [{"measurement": "survivor count", "setting": "dose: 12.5 mg/kg/injection, schedule: Q01DX005 (ip), vehicle: saline with Tween-80", "value": "3 of 5"}, {"measurement": "survivor count", "setting": "[2]", "value": "0 of 5"}, {"measurement": "survivor count", "setting": "dose: 100.0 mg/kg/injection, schedule: Q01DX005 (ip), vehicle: saline with Tween-80", "value": "0 of 5"}, {"measurement": "survivor count", "setting": "dose: 200.0 mg/kg/injection, schedule: Q01DX005 (ip), vehicle: saline with Tween-80", "value": "0 of 5"}]}, {"compound": "CC(=O)OCC12C(=O)CC(C)C3(CC(c4ccoc4)OC3=O)C1CCC(=O)C2(O)CCl", "note": "(stereo not given)", "values": [{"measurement": "survivor count", "setting": "dose: 100.0 mg/kg/injection, schedule: Q01DX005 (ip), vehicle: saline + Tween-80 + alcohol", "value": "6 of 6"}]}, {"compound": "Cn1c2ccccc2c2nnc(N/N=C/c3cccnc3)nc21", "values": [{"measurement": "survivor count", "setting": "dose: 100.0 mg/kg/injection, schedule: Q04DX002 (ip), vehicle: saline with Tween-80", "value": "6 of 6"}, {"measurement": "survivor count", "setting": "dose: 200.0 mg/kg/injection, schedule: Q04DX002 (ip), vehicle: saline with Tween-80", "value": "6 of 6"}]}, {"compound": "CC[CH2][Pb]([CH2]CC)([CH2]CC)[O]C(=O)C(F)(F)F", "values": [{"measurement": "T/C", "setting": "dose: 4.0 mg/kg/injection, schedule: Q01DX009 (ip), vehicle: saline with Tween-80", "value": "130 % of control"}, {"measurement": "T/C", "setting": "dose: 6.0 mg/kg/injection, schedule: Q01DX009 (ip), vehicle: saline with Tween-80", "value": "139 % of control"}, {"measurement": "T/C", "setting": "dose: 6.25 mg/kg/injection, schedule: Q01DX009 (ip), vehicle: saline", "value": "125 % of control"}, {"measurement": "T/C", "setting": "dose: 9.0 mg/kg/injection, schedule: Q01DX009 (ip), vehicle: saline with Tween-80", "value": "143 % of control"}, {"measurement": "survivor count", "setting": "dose: 12.5 mg/kg/injection, schedule: Q01DX009 (ip), vehicle: saline", "value": "5 of 6"}, {"measurement": "survivor count", "setting": "dose: 25.0 mg/kg/injection, schedule: Q01DX009 (ip), vehicle: saline", "value": "0 of 6"}]}, {"compound": "O=C(N/N=C\\c1cccc2ccccc12)C(=O)N/N=C/c1cccc2ccccc12", "values": [{"measurement": "survivor count", "setting": "[2]", "value": "6 of 6"}]}, {"compound": "FC(F)(F)c1cc(NC(=S)SC2CCCCC2)ccc1Cl", "values": [{"measurement": "T/C", "setting": "[3]", "value": "127 % of control"}]}, {"compound": "COC(=O)/C(C)=C/C1N=C1c1ccccc1", "note": "(stereo not given)", "values": [{"measurement": "survivor count", "setting": "dose: 200.0 mg/kg/injection, schedule: Q01DX001 (ip), vehicle: saline with Tween-80", "value": "2 of 6"}]}, {"compound": "O=C(N/N=C\\C12CC3CC(CC(C3)C1)C2)c1ccncc1", "values": [{"measurement": "survivor count", "setting": "dose: 200.0 mg/kg/injection, schedule: Q01DX009 (ip), vehicle: saline with Tween-80", "value": "6 of 6"}]}, {"compound": "CC([NH-])CC(C)[NH-].[Cl][Pt+2][Cl]", "note": "(stereo not given)", "values": [{"measurement": "T/C", "setting": "dose: 1.56 mg/kg/injection, schedule: Q04DX002 (ip), vehicle: saline with Tween-80", "value": "133 % of control"}, {"measurement": "T/C", "setting": "dose: 3.12 mg/kg/injection, schedule: Q04DX002 (ip), vehicle: saline with Tween-80", "value": "145 % of control"}, {"measurement": "survivor count", "setting": "dose: 12.5 mg/kg/injection, schedule: Q04DX002 (ip), vehicle: saline with Tween-80", "value": "6 of 6"}, {"measurement": "survivor count", "setting": "dose: 25.0 mg/kg/injection, schedule: Q04DX002 (ip), vehicle: saline with Tween-80", "value": "4 of 6 and 6 of 6"}]}, {"compound": "CN1C=[N+](C)Cc2nnn(Cc3ccccc3)c21", "values": [{"measurement": "survivor count", "setting": "dose: 50.0 mg/kg/injection, schedule: Q01DX009 (ip), vehicle: saline", "value": "0 of 6"}, {"measurement": "survivor count", "setting": "dose: 100.0 mg/kg/injection, schedule: Q01DX009 (ip), vehicle: saline", "value": "0 of 6"}, {"measurement": "survivor count", "setting": "[3]", "value": "0 of 6"}]}, {"compound": "O=NN(CCOCCCl)C(=O)NC1CCCCC1", "values": [{"measurement": "T/C", "setting": "dose: 50.0 mg/kg/injection, schedule: Q01DX009 (ip), vehicle: water", "value": "125 % of control"}, {"measurement": "T/C", "setting": "dose: 100.0 mg/kg/injection, schedule: Q01DX009 (ip), vehicle: water", "value": "136 % of control"}]}]}
